Tags and fusion partners may be left off the protein sequences shown.

Data set [1] concerns the target T1, Pfu DNA ligase variant Dala (D540A/Q547A/K554A/K558A) (Pyrococcus furiosus) (UniProt P56709).
T1 sequence (limits assumed): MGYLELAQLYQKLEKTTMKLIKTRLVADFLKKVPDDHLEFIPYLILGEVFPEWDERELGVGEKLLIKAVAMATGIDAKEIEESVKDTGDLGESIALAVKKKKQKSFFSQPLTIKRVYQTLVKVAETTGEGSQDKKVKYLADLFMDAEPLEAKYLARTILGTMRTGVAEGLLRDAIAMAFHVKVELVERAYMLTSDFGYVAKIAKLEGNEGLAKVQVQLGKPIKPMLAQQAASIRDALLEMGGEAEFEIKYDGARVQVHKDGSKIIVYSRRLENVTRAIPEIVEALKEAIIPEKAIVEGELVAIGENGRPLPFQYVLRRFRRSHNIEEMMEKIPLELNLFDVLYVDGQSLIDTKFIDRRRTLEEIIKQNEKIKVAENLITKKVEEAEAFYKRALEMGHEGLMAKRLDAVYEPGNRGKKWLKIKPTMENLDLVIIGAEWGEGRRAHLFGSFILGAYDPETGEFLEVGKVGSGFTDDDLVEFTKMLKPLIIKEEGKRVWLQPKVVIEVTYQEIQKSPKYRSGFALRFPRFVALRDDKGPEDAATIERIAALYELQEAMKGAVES
Description: activity assay. As to conditions: 5'-phosphate on 30mer; ligation efficiency higher than wild type at 30 C and 80 C; purified recombinant protein; label: 5'-TET on 20mer.

Data set [2] concerns the target T2, Pfu DNA ligase variant DΔ12 (D540A/Q547A, C-terminal 12 residues deleted) (Pyrococcus furiosus) (UniProt P56709).
T2 sequence: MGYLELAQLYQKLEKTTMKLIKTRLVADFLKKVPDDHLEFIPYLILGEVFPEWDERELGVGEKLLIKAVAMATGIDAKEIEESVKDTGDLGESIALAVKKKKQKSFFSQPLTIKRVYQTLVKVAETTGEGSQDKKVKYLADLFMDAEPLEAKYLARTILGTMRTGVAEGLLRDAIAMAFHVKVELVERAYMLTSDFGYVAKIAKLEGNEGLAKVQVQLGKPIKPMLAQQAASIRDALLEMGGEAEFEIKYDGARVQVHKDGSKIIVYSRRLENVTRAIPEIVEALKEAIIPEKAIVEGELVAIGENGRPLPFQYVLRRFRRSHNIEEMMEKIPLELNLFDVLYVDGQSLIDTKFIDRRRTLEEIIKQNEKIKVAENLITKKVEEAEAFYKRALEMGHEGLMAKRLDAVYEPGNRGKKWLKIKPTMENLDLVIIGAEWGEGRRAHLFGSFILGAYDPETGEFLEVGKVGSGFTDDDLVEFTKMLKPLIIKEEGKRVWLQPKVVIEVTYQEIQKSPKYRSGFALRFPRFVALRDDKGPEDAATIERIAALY
Description: activity assay. The following applies: 5'-phosphate on 30mer; ligation efficiency higher than wild type at 20 C, 30 C and 80 C; purified recombinant protein; label: 5'-TET on 20mer.

With “AAACGGGCCGGTCAACAATCCTCTGGAGTCGACCTGTAGGAATGCAAGCTTGGCGTCACG / AGGTCGACTCCAGAGGATTGTTGACCGGCC / CGCCAAGCTTGCATTCCTAC [nicked ligation substrate 60mer/30mer/20mer]”, the “activity on this sequence” value in data set [1] and in data set [2] was “active” in each case.

The values are drawn from US20090061481.
